These results are taken from patent US20070026079A1, “Intranasal administration of modulators of hypothalamic ATP-sensitive potassium channels” (priority 2005, published 2007).

For series [1], the system named is central KATP channels. Description: ICV infusion of diazoxide with pancreatic-insulin clamp (1 mU/kg.min) in conscious rats. In kind it is in vivo, Sprague-Dawley rats. From the text: Animal preparation for the in vivo experiments. Rats. Eighty-nine 10-week-old male Sprague-Dawley rats (Charles River Breeding Laboratories, Wilmington, Mass.) were studied. Rats were housed in individual cages and subjected to a standard light-dark cycle. Three weeks prior to the in vivo studies, chronic catheters were implanted in the third cerebral ventricle (Obici et al., 2003; Liu et al., 1998) or intrahypothalamically (Morton et al., 2003) (IH) by stereotaxic surgery. One week before the pancreatic-insulin clamp protocols, rats received additional catheters in the right internal jugular and left carotid artery (FIG. 5) (Obici et al., 2003; Liu et al., 1998).
In vivo studies. For the studies in rats, the metabolic experiments were performed ˜3 weeks after stereotaxic surgery following complete recovery from the operation (FIG. 5). All solutions were diluted with artificial cerebral spinal fluid (aCSF). […] Pancreatic-insulin clamp studies were performed as previously described (Liu et al., 1998). Euglycemic-hyperinsulinemic clamps in conscious, unrestrained, catheterized mice were performed for 90 min as previously described (Obici et al., 2003; Liu et al., 1998).
(§1) Hepatic alucose fluxes. Rate of hepatic glucose fluxes was determined as described. Barzilai et al., 1997).

For series [2], the system named is hypothalamic KATP channels. Put plainly: ICV infusion of insulin, KATP channel blocker (glibenclamide) or both with pancreatic-insulin clamp (1 mU/kg.min) in rats. In kind it is in vivo, Sprague-Dawley rats. The settings on record: for FFA / Insulin: plasma; for Body wt.: measured at the beginning of the clamp; for 3H-Glucose Plasma SA / 3H-UDP-glucose Liver SA / Direct (%) / 14C-PEP / 14C-UDP glucose: Table 7; for Direct (%): direct pathway; for 14C-PEP / 14C-UDP glucose: liver.
Source text: Animal preparation for the in vivo experiments. Rats. Eighty-nine 10-week-old male Sprague-Dawley rats (Charles River Breeding Laboratories, Wilmington, Mass.) were studied. Rats were housed in individual cages and subjected to a standard light-dark cycle. Three weeks prior to the in vivo studies, chronic catheters were implanted in the third cerebral ventricle (Obici et al., 2003; Liu et al., 1998) or intrahypothalamically (Morton et al., 2003) (IH) by stereotaxic surgery.
In vivo studies. For the studies in rats, the metabolic experiments were performed ˜3 weeks after stereotaxic surgery following complete recovery from the operation (FIG. 5). All solutions were diluted with artificial cerebral spinal fluid (aCSF). […] Euglycemic-hyperinsulinemic clamps in conscious, unrestrained, catheterized mice were performed for 90 min as previously described (Obici et al., 2003; Liu et al., 1998).
as §1

In series [1] (Basal, before the clamp, plasma), `CC1=NS(=O)(=O)c2cc(Cl)ccc2N1` [diazoxide] displayed an FFA of 0.4 ± 0.1 mM. For the same molecule, the Body wt. in series [1] (Basal, measured at the beginning of the clamp) is given as 306 ± 4 g. In series [1] (Clamp steady state, plasma), this molecule showed an FFA of 0.5 ± 0.1 mM and an Insulin of 1.2 ± 0.4 ng/mL. Also, in series [1] (Table 6), the “3H-Glucose Plasma SA” value is recorded as 46.0 ± 14.2 dpm/nmol and the “3H-UDPglucose Liver SA” value is recorded as 6.79 ± 1.6 dpm/nmol. Besides, in series [1] (direct pathway, Table 6), the “Direct (%)” value is 14.37 ± 2.2%. In addition, in series [1] (liver, Table 6), the 14C-PEP is given as 11.60 ± 2.4 dpm/nmol and the 14C-UDP glucose came out at 3.85 ± 0.3 dpm/nmol.
Consider `COc1ccc(Cl)cc1C(=O)NCCc1ccc(S(=O)(=O)NC(=O)NC2CCCCC2)cc1` [glibenclamide, 5-Chloro-N-[2-[4-(3-cyclohexylureidosulfonyl)phenyl]ethyl]-2-methoxybenzamide, reference compound], for which the FFA in series [2] (Basal, before the clamp) came out at 0.4 ± 0.1 mM. The same molecule returned a Body wt. in series [2] (Basal) of 316 ± 8 g. In series [2] (Clamp steady state), this molecule registered an FFA of 0.6 ± 0.2 mM and an Insulin of 1.2 ± 0.5 ng/mL. Further, in series [2], the “3H-Glucose Plasma SA” value is 48.8 ± 3.9 dpm/nmol, the “3H-UDP-glucose Liver SA” value is 8.7 ± 0.6 dpm/nmol, the “Direct (%)” value is 18.5 ± 2.8% and the 14C-PEP was 8.8 ± 2.4 dpm/nmol. In addition, the 14C-UDP glucose in series [2] worked out at 5.3 ± 1.0 dpm/nmol.
On to insulin, for which the FFA in series [2] (Basal, before the clamp) is given as 0.5 ± 0.3 mM. Besides, the Body wt. in series [2] (Basal) is 300 ± 5 g. Further, in series [2] (Clamp steady state), the FFA was found to be 0.4 ± 0.1 mM and the Insulin is 1.3 ± 0.2 ng/mL. In series [2], the “3H-Glucose Plasma SA” value came to 43.1 ± 1.9 dpm/nmol, the “3H-UDP-glucose Liver SA” value turned out to be 5.5 ± 0.5 dpm/nmol, the “Direct (%)” value was 12.1 ± 0.7% and the 14C-PEP is given as 10.9 ± 0.6 dpm/nmol. This molecule also registered a 14C-UDP glucose in series [2] of 2.2 ± 0.1 dpm/nmol.
